For some of these results: No signal at the amounts used counts as a negative. For some of these results: Tags and fusion partners may be left off the protein sequences shown.
Assays:
[1] = target: T1, LXRα (Homo sapiens) (UniProt Q13133); assay: EMSA; details: LXRα alone; protein translated in vitro; label: 32P
T1 sequence: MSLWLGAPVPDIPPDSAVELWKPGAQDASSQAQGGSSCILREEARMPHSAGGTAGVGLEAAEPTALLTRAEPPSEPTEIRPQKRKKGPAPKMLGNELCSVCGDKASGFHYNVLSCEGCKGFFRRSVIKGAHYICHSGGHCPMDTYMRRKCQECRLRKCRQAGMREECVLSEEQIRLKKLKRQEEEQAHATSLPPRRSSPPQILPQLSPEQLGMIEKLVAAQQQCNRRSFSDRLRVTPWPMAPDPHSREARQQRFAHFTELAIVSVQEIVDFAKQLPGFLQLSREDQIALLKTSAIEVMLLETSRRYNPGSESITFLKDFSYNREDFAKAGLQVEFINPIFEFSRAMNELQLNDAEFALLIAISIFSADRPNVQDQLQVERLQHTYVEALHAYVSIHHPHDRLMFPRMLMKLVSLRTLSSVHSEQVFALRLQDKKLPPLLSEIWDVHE

Chains of the proteins cited; added tags and fusions are not shown. Where a name states a change or a piece, a line headed by the entry shows the natural chain unless it says otherwise. A line that says so, or that is headed by a name, gives the form on record, which may keep a tag or linker.
UniProt P19793: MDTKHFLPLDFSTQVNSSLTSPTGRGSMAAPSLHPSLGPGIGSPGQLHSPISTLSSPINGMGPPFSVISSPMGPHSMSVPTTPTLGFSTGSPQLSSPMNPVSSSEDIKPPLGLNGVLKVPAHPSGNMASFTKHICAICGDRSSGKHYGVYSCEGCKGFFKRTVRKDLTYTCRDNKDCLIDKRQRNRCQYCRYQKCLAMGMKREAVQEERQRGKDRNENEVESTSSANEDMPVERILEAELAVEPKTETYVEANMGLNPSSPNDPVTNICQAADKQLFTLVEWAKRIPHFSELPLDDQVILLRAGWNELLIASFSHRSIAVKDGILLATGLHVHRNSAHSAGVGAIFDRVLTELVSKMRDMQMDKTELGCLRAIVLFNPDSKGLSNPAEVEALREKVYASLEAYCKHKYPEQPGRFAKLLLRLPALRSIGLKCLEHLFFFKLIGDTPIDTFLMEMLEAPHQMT
LXRα/RXRα heterodimer (Homo sapiens), one chain, as listed by the source: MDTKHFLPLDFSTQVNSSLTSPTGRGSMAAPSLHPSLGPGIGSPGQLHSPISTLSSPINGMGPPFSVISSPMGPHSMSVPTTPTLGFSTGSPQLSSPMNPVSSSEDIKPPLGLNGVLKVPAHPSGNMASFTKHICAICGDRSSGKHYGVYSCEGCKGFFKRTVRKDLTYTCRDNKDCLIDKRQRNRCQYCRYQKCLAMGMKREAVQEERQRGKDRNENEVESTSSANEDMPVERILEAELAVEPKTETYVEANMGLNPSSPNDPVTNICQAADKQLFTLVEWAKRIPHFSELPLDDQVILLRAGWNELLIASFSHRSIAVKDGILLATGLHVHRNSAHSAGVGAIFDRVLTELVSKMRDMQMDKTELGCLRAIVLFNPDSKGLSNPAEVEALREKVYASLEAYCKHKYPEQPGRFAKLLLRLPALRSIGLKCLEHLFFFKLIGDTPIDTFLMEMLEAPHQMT

[2] = target: RXRα (Homo sapiens) (UniProt P19793); assay: activity in cells; details: no transactivation; protein in cells; only the site is given
[3] = target: T2, RARα (Homo sapiens) (UniProt P10276); assay: activity in cells; details: no transactivation; protein in cells; only the site is given
T2 sequence (looked up, limits assumed): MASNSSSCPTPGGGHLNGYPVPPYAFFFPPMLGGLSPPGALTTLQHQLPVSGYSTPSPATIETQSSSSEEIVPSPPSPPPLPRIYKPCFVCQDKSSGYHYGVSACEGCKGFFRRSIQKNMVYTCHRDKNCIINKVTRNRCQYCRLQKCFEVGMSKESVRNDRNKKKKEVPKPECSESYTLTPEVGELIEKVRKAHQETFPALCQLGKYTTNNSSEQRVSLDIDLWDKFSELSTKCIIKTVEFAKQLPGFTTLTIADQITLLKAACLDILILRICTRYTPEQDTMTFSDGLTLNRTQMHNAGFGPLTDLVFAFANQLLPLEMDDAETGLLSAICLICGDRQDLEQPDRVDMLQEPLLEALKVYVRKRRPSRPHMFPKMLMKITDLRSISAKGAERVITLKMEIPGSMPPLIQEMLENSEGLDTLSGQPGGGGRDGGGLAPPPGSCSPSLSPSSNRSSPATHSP

[4] = system: LXRα/RXRα heterodimer (Homo sapiens); assay: activity in cells; details: synergistic basal and methoprene acid response; CV-1 cells; protein in cells; only the site is given

For “CTTGCGGTTCCCAGGGTTTAAATAAGTTCA (double strand) [LXRE (ΔMTV)]”, the binding result [1] was “no binding”, the “activity on this sequence” value [2] was “not active” and the “activity on this sequence” value [3] was “not active”. For the same sequence, the “activity on this sequence” value [4] was “active”.

Reference: patent US5747661
